Measured values published in paper doi:10.1101/2021.08.13.456027.
Results are given in words; binding and its absence hold for the method and conditions named. In cells and extracts the contact can be indirect. Some binding calls cover weakened binding; strength is not graded here.

Sequences of proteins named here, by UniProt entry; tags and fusion partners are left off. Residues count along the entry.
UniProt Q9D0K2, residues 40-520: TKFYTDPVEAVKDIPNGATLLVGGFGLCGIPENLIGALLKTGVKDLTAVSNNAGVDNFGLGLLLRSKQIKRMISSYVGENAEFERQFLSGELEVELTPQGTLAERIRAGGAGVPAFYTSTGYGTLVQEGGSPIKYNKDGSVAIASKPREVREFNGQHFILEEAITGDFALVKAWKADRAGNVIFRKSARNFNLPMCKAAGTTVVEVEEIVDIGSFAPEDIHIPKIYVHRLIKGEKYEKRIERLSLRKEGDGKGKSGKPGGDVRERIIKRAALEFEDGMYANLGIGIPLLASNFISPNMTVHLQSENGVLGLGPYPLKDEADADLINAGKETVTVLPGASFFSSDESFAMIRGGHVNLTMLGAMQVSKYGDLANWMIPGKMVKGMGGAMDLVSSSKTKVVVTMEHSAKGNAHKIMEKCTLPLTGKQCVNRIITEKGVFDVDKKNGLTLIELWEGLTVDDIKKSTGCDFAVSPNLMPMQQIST

Target: Succinyl-CoA:3-oxoacid-CoA transferase (SCOT1) (mouse (endogenous in heart tissue)) (UniProt Q9D0K2)
Test: cross-linking

Succinyl-CoA:3-oxoacid-CoA transferase (SCOT1) (from UniProt Q9D0K2 40-520) (enzyme)
binding: binds
